No constants are given. Whether binding was seen depends on the method and setting. Some results given as binding are weak or reduced against the parent protein; the word gives no strength.
What was measured:
[1] = biological target: fibronectin extra domain B (ED-B) (UniProt P02751); assay: phage colony ELISA on biotin ED-B captured on streptavidin, against streptavidin alone
[2] = biological target: fibronectin extra domain B (ED-B) (UniProt P02751); assay: SPR (Biacore), peptide at 250 nM per the legend, biotin-EDB on a streptavidin SA chip
streptavidin [3] = biological target: streptavidin (UniProt P22629); assay: phage ELISA, recombinant phage displaying the peptide on coated streptavidin (BSA, ovalbumin and VEGF as other coats)
streptavidin [4] = biological target: streptavidin (UniProt P22629); assay: phage ELISA: phage displaying the peptide on wells coated with 5 µg/ml protein, anti-M13-HRP, absorbance at 450 nm
[5] = biological target: vascular endothelial growth factor receptor 1 (VEGFR1) (UniProt P17948); assay: as above
[6] = biological target: vascular endothelial growth factor receptor 1 (VEGFR1) (UniProt P17948); assay: phage ELISA, recombinant phage displaying the peptide on coated VEGFR1 (VEGFR2, streptavidin, HSA, TNF and VEGF as other coats)

The chains behind the UniProt entries cited, without tags or fusion partners. Residues count along the entry.
UniProt P02751, residues 1266-1356: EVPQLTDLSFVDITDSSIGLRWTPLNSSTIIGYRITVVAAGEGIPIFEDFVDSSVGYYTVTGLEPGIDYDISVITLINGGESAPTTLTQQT
UniProt P17948, residues 27-756: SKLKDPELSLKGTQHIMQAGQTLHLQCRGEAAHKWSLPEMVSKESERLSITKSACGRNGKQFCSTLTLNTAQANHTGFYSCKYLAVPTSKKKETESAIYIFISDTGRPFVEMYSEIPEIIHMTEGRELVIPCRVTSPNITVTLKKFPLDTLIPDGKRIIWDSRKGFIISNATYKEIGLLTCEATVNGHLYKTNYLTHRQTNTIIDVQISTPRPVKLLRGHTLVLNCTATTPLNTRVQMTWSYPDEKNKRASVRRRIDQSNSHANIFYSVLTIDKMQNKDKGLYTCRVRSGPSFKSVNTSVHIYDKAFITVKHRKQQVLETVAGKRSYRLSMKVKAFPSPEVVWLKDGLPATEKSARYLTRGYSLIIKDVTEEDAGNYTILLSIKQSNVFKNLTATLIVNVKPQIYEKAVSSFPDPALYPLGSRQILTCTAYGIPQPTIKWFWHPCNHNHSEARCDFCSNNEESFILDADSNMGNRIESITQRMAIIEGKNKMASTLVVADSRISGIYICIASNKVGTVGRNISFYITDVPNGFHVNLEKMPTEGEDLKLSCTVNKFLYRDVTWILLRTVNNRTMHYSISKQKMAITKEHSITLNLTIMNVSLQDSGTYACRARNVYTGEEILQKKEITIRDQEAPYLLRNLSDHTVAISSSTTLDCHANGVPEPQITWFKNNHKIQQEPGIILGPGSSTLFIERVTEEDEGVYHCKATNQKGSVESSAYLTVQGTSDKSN

Row | binding [1] | binding [5] | binding [6] | Binder | also measured
1 | binds | – | – | CSSPIQGSWTWENGKWTWKGIIRLEQ [peptide 3 (…)] | binding [2]: binds
2 | – | – | – | WSHPQFEKGGGSWTWENGKWTWKGAHPQVR [Strep_opti1] | binding (streptavidin [3]): binds; binding (streptavidin [4]): binds
3 | binds | – | – | ADGRVRGSWTWENGKWTWKGIIRLEQ [peptide 2 (…)] | –
4 | – | binds | binds | GNQWFIGGGSWTWENGKWTWKGKLQNPM [VEGFR1_opti2] | –
5 | binds | – | – | WGGPVRGSWTWENGKWTWKGIIRLEQ [peptide 1 (…)] | –
6 | – | – | – | WSHPQFEKGGGSWTWENGKWTWKGTLIHPM [Strep_opti2] | binding (streptavidin [3]): binds; binding (streptavidin [4]): binds
7 | – | binds | binds | GNQWFIGGGSWTWENGKWTWKGRIPKNR [VEGFR1_opti1] | –
8 | – | binds | binds | GNQWFIGGGSWTWENGKWTWKGQQAIQP [VEGFR1_opti3] | –
